Results as given in PubChem BioAssay AID2685 (National Center for Advancing Translational Sciences (NCATS), 2010).
The other results are listed elsewhere or left out. Shown are side measurements of this screen, not its main read-out; they come without a call. Most of these compounds were active or inconclusive in the main read-out, so they are no random draw. Potencies come from curve fits of mixed quality, noted in brackets.

Assay: qHTS Assay for Lipid Storage Modulators in Drosophila S3 Cells;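 on cell number change: cells counted by Cell Tracker Red CMTPX staining in the red channel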
Details: BODIPY lipid droplet fluorescence, 18-24 h; for cell number change: measured here: cell count max response, cells fed with added oleic acid
How it was run: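 Drosophila S3 cells loaded with oleic acid (400 uM, as added) and compounds at several concentrations; lipid droplets imaged by 488-nm laser-scanning cytometry, 500–530 nm intensity and object ratio to cell channel. Percent activity normalized to 20 uM Triacsin C.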

[1] = measured here: lipid fluorescence (Fed channel) AC50, cells fed with added oleic acid
[2] = measured here: cell number channel AC50, cells fed with added oleic acid

| SMILES | cell number change | AC50 [1] | AC50 [2] |
| --- | --- | --- | --- |
| O=CN1CCN(CC(O)Cn2c3ccccc3c3ccccc32)CC1 (stereo unspecified) | 5.6% | – | – |
| Cc1ccc(S(=O)(=O)NCC(=O)NCC2COc3ccccc3O2)cc1C (stereo unspecified) | 9.7% | 0.0651 µM [rising, full curve, poor fit] | – |
| Cc1ccc(OCc2nnc(SCc3nc4ccccc4[nH]3)n2Cc2ccco2)cc1 | -9.31% | 1.64 µM [rising, partial curve] | 0.92 µM [rising, partial curve] |
| COc1ccc(CNC(=O)CN(C(=O)c2csnn2)c2cccc(C(C)=O)c2)cc1 | 12.9% | 0.461 µM [falling, full curve] | – |
| O=C(CN1CCN(Cc2ccccc2Cl)C1=O)NC1CCCCCCC1 | -23.6% | – | – |
| Cc1nn(-c2ccccc2)c(C)c1/C=N/N1CCN(c2ccccc2)CC1 | 83.1% | 6.51 µM [rising, single point] | 7.31 µM [rising, partial curve] |
| CC(=O)Nc1ccc(NC(=O)CSC2=NCCS2)cc1 | -4.79% | – | 0.58 µM [rising, single point] |
| C=CCNC(=O)/C(C#N)=C/c1cc(Br)ccc1OC | 40.9% | – | 32.6 µM [rising, single point] |
| CCOc1ccc(S(=O)(=O)NCCOC)cc1C | – | 6.51 µM [rising, single point] | – |
| Cn1ncc(Br)c1C(=O)NC1C2CC3CC(C2)CC1C3 (stereo unspecified) | 1.46% | 2.06 µM [rising, partial curve, poor fit] | 1.84 µM [rising, partial curve, poor fit] |
| Cc1ccc(C(=O)c2oc3ccc(Cl)cc3c2NC(=O)CN2CCN(C)CC2)cc1 | 25.6% | 0.58 µM [rising, single point] | – |
| CC(=O)Nc1ccc(S(=O)(=O)NC2C3(C)CCC(C3)C2(C)C)cc1 (stereo unspecified) | -19.3% | – | – |
| O=C(Nc1ccc(O)c(-c2nc3ccccc3s2)c1)c1cccs1 | -15.6% | 0.58 µM [rising, partial curve, poor fit] | – |
| CCCSc1nc(O)c(C(c2ccc(OC)c(O)c2)c2c(O)nc(SCCC)n(C)c2=O)c(=O)n1C | -26.8% | 32.6 µM [falling, single point] | 6.51 µM [rising, single point] |
| O=c1[nH]c(SCc2ccc(F)cc2Cl)nc2ccccc12 | 5.51% | 3.26 µM [falling, single point] | – |
| COc1ccc(NS(=O)(=O)c2cccc(C(=O)OCC(=O)N3CCN(c4ccc(OC)cc4)CC3)c2)cc1 | -43.1% | 16.4 µM [falling, single point] | 29.1 µM [falling, single point] |
| COc1ccc(C(N)=O)cc1NC(=O)c1cccc(F)c1 | 10.9% | 25.9 µM [rising, single point] | – |
| CSc1ccccc1C(=O)NCC(c1ccco1)N(C)C (stereo unspecified) | 28.2% | – | – |
| Cc1cc(C(=O)c2ccc(Cl)cc2)c(NC(=O)CCl)s1 | -11.3% | 18.4 µM [falling, partial curve] | – |
| CN(C)C1=NC[C@H](Cc2ccccc2)N1CCCC1CCCCC1 | -25.4% | 20.6 µM [falling, partial curve, poor fit] | – |

| SMILES | cell number change | AC50 [1] | AC50 [2] |
| --- | --- | --- | --- |
| CN(c1ccc(OCC(=O)OCC(=O)Nc2c(F)c(F)c(F)c(F)c2F)cc1)S(=O)(=O)c1ccc(F)cc1 | 1.08% | 0.731 µM [falling, full curve, poor fit] | – |
| COc1ccc2cc(C#N)c(N3CCN(Cc4nnnn4CCC(C)C)CC3)nc2c1 | 88.8% | 3.26 µM [rising, partial curve] | 2.91 µM [rising, full curve] |
| CCC(=O)N1CCc2cc(-c3csc(NC(=O)c4ccco4)n3)ccc21 | 15.4% | 5.8 µM [falling, full curve, poor fit] | – |
| Cc1ccc(-n2nc3c(=O)n(CC(=O)NCCc4ccccc4C)nc(C)c3c2C)cc1 | 7.31% | 0.231 µM [rising, full curve, poor fit] | 6.51 µM [rising, single point] |
| Cc1ccc2nc(SCC(=O)NCc3ccc(S(N)(=O)=O)cc3)[nH]c2c1 | – | 3.26 µM [falling, single point] | – |
| Cc1ccc(-c2nn(-c3ccccc3)cc2/C=C/C(=O)OCC(=O)NC2CC2)o1 | -44.7% | – | 16.4 µM [falling, partial curve, poor fit] |
| Oc1[nH]c2c(Cl)cc(Cl)cc2c1N=NC(=S)NCC1CCCO1 (stereo unspecified) | -46.9% | 18.4 µM [falling, single point] | 18.4 µM [falling, single point] |
| COc1cccc(CC(=O)OCC(=O)c2cc(OC)ccc2OC)c1 | 2.39% | – | – |
| Cc1cc(C)n(C(=O)c2sc3cc(F)ccc3c2Cl)n1 | -20.2% | 1.03 µM [rising, full curve] | – |
| Cc1ccc(CN2[C@@H](Cc3ccccc3)C(=O)CS2(=O)=O)cc1 | 17.6% | 0.0366 µM [rising, full curve] | – |
| O=C(N/N=C/c1cccnc1)c1cccc(S(=O)(=O)N2CCCC2)c1 | 32.9% | 23.1 µM [rising, partial curve, poor fit] | – |
| Cc1ccc(OCC(=O)O/N=C(\N)c2ccncc2)cc1C | – | 13 µM [rising, partial curve] | – |
| Cc1ccc(C)c(NC(=S)NC(NC(=O)Cc2cccc3ccccc23)C(Cl)(Cl)Cl)c1 (stereo unspecified) | -57.1% | 4.11 µM [falling, full curve] | 4.11 µM [falling, full curve] |
| COc1ccccc1C1CCN(c2ccc(CO)cc2[N+](=O)[O-])CC1 | -1.46% | 0.461 µM [falling, single point] | 0.58 µM [falling, single point] |
| CC1=C(C(=O)OCc2ccccc2)C(c2ccc([N+](=O)[O-])cc2)NC(=O)N1 (stereo unspecified) | -35.6% | 0.58 µM [falling, single point] | 32.6 µM [falling, single point] |
| O=C(NC1CCN(C(=S)Nc2ccccc2Cl)CC1)C1CCCCC1 | -6.41% | 29.1 µM [falling, single point] | – |
| Cc1nc2sc3c(c2c(=O)n1N)CCC3 | 35.2% | – | 13 µM [rising, partial curve, poor fit] |
| CCCCOC(=O)c1ccc(OC(=O)c2cccnc2)cc1 | -13.2% | 0.411 µM [falling, partial curve] | – |
| O=C(Cn1nc(-c2ccco2)ccc1=O)Nc1ccc(Br)cc1 | -13.7% | 2.59 µM [falling, partial curve, poor fit] | – |
| COc1ccc(-c2n[nH]c(C)c2-c2cnn(-c3ccccc3)c2)c(O)c1 | -57% | – | 16.4 µM [falling, single point] |

Another view of some results above:
SMILES,cell number change,AC50 [1],AC50 [2]
Cc1nc2sc3c(c2c(=O)n1N)CCC3,35.2%,–,"13 µM [rising, partial curve, poor fit]"
CCCCOC(=O)c1ccc(OC(=O)c2cccnc2)cc1,-13.2%,"0.411 µM [falling, partial curve]",–
O=C(Cn1nc(-c2ccco2)ccc1=O)Nc1ccc(Br)cc1,-13.7%,"2.59 µM [falling, partial curve, poor fit]",–

More structures:

| SMILES | cell number change | AC50 [1] | AC50 [2] |
| --- | --- | --- | --- |
| Cc1cc2nsnc2c(S(=O)(=O)NCC(=O)O)c1C | 17.4% | – | – |
| c1ccc(Cn2ncc3c2ncn2c(-c4ccncc4)nnc32)cc1 | 55.3% | – | 29.1 µM [rising, single point] |
| O=S(=O)(NCC(c1cccnc1)N1CCN(c2ccc(F)cc2)CC1)c1ccc(F)cc1 (stereo unspecified) | – | – | 0.411 µM [rising, full curve] |
| COc1nc2ccccc2nc1N1CCN(c2ccc(F)cc2)CC1 | – | 6.51 µM [rising, partial curve] | – |
| CCc1cc2c(=O)c(-c3cnn(-c4ccccc4)c3)c(C)oc2cc1OCC(=O)Nc1cccc(C)c1 | 4.84% | 29.1 µM [rising, single point] | – |
| CCN(CC)C(=O)c1ccc2c(=O)n(Cc3ccc4c(c3)OCO4)c(=S)[nH]c2c1 | 9.91% | – | – |
| CC(C)c1ccc(NC(=O)C2CCN(C(=O)[C@@H]3Cc4ccccc4CN3)CC2)cc1 | 23.3% | 2.91 µM [rising, single point] | – |
| C=CCn1c(CCC(O)COCCCCC)n[nH]c1=S (stereo unspecified) | 37.4% | 6.51 µM [falling, single point] | 3.26 µM [rising, full curve, poor fit] |
| C=CCn1c(CNC(=O)c2ccccc2F)nnc1SCC(=O)N1CCOCC1 | -14.9% | 29.1 µM [falling, single point] | – |
| N#Cc1ccc(OCC(=O)OCC(=O)Nc2sccc2C(N)=O)cc1 | 10.1% | – | 1.46 µM [falling, partial curve, poor fit] |
| COc1cc(CNCc2ccncc2)cc(Br)c1OCc1ccccc1F | -13.4% | – | – |
| O=C1c2ccccc2C(=O)C1c1ccc2ccccc2n1 | 9.69% | 0.731 µM [rising, full curve, poor fit] | – |
| C=C(C(=O)c1ccccc1)C(C)C(=C)C(=O)c1ccccc1 | -16.7% | 14.6 µM [falling, partial curve] | – |
| CC(C)CC(NS(=O)(=O)c1ccc2c(c1)oc(=O)n2C)C(=O)NC1CCCc2ccccc21 (stereo unspecified) | 19.7% | – | 0.00411 µM [rising, full curve, poor fit] |
| COc1cccc(NC(=O)[C@@H](NC(=O)N2CCn3c2nc2ccccc23)C(C)C)c1 | -4.25% | 6.51 µM [rising, single point] | – |
| N#CC1=C(N)Oc2cc(N)ccc2C1C1CC=CCC1 (stereo unspecified) | -35% | 0.92 µM [rising, full curve, poor fit] | 5.17 µM [falling, full curve] |
| COc1ccc(CNC2CCCc3ccccc32)c(OC)c1 (stereo unspecified) | -5.61% | 23.1 µM [falling, single point] | – |
| CC1CCN(C(=O)Cn2nnc(-c3ccc([N+](=O)[O-])cc3)n2)CC1 | 18.6% | – | – |
| O=C(CN1C(=O)NC2(CCCCC2)C1=O)Nc1cccc(Cl)c1Cl | 8.15% | – | – |
